Record: PubChem BioAssay AID686938 (Drosophila RNAi Screening Center, 2013)
The deposit covers about 23,000 reagents; below is a random part of those with a known target gene and a result. Over the whole deposit, 75 (0.33%) got an active call. 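Raw plate signals without normalisation; calls rest on plate z-scores that were not deposited; ratio present for only 364 wells.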 Reagents against one gene are numbered here. A plus sign joins genes that one reagent is predicted to hit. Not given: the dose of the treatment.

- Screen: 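Knock-downs reducing store-operated calcium influx in Drosophila cells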 (primary screen)
- Cell system: Drosophila S2R+ cells
- Knock-down reagent: long dsRNA against Drosophila genes, about 0.25 µg dsRNA per well, roughly 10,000 cells
- Duration: 5 days of knock-down before the calcium assay
- Challenge: thapsigargin (SERCA pump blocker) to empty calcium stores; entry signal taken 4 min after adding it
- Measured: 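Per-well fluo-4 fluorescence in two replicates, unnormalised, measured in resting cells and 4 min after store depletion by the SERCA blocker thapsigargin; ratio of the two present in few wells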
- Reading the numbers: calcium entry signal: higher = stronger calcium signal after store depletion; entry to resting ratio: higher = more calcium entry relative to resting level; resting calcium signal: higher = higher resting calcium signal
- Call rule: 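Called when the plate z-score of the entry-to-rest ratio, mean of duplicates, falls below −3; wells with low overall dye signal (Fmax z below −2) or more than five off-targets excluded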
- Meaning of the calls: active = strongly reduced calcium entry; inactive = no strong reduction

| Gene | dsRNA no. | calcium entry signal, replicate 1 (fluorescence units) | calcium entry signal, replicate 2 (fluorescence units) | entry to resting ratio | resting calcium signal, replicate 1 (fluorescence units) | resting calcium signal, replicate 2 (fluorescence units) | Call |
| --- | --- | --- | --- | --- | --- | --- | --- |
| blanks | 1 | 2.92e7 | 4.04e7 | – | 1.35e7 | 1.75e7 | inactive |
| RunxA (Runt related A) | 1 | 3.51e7 | 4.09e7 | – | 1.85e7 | 2.01e7 | inactive |
| RunxA (Runt related A) | 2 | 4.81e7 | 4.96e7 | – | 2.49e7 | 2.09e7 | inactive |
| RunxA (Runt related A) | 3 | 5.60e7 | 5.32e7 | – | 2.67e7 | 2.34e7 | inactive |
| RunxA (Runt related A) | 4 | 3.32e7 | 4.89e7 | – | 1.62e7 | 2.75e7 | inactive |
| CG11523 | 1 | 3.61e7 | 4.78e7 | – | 1.61e7 | 2.97e7 | inactive |
| AttB (Attacin-B) | 1 | 3.13e7 | 3.07e7 | – | 1.65e7 | 1.60e7 | inactive |
| CG4291 | 1 | 4.35e7 | – | – | 2.46e7 | – | inactive |
| Plzf (Promyelocytic leukemia zinc finger) | 1 | 4.31e7 | – | – | 2.13e7 | – | inactive |
| CG7856 | 1 | 4.48e7 | 4.53e7 | – | 2.27e7 | 2.19e7 | inactive |
| cype (cyclope) | 1 | 4.27e7 | 4.25e7 | – | 2.05e7 | 1.94e7 | inactive |
| CG14369 | 1 | 2.75e7 | 4.17e7 | – | 1.45e7 | 6.63e7 | inactive |
| CG3163 | 1 | 4.09e7 | – | – | 2.11e7 | – | inactive |
| nAChRbeta2 (nicotinic Acetylcholine Receptor beta2) | 1 | 3.85e7 | 2.56e7 | – | 1.76e7 | 1.27e7 | inactive |
| CG14069 | 1 | 2.96e7 | 3.43e7 | – | 1.38e7 | 1.57e7 | inactive |
| Prx6c (Peroxiredoxin 6c) | 1 | 4.38e7 | 4.42e7 | – | 1.95e7 | 1.96e7 | inactive |
| RpL38 (Ribosomal protein L38) | 1 | 1.36e7 | 1.53e7 | – | 1.02e7 | 1.00e7 | inactive |
| CG7220 | 1 | 4.29e7 | 3.21e7 | – | 1.79e7 | 1.31e7 | inactive |
| CG7220 | 2 | 4.37e7 | 3.88e7 | – | 2.01e7 | 1.69e7 | inactive |
| Ncc69 (sodium chloride cotransporter 69) | 1 | 5.11e7 | 4.42e7 | – | 3.56e7 | 1.90e7 | inactive |
| Ncc69 (sodium chloride cotransporter 69) | 2 | 3.04e7 | 3.46e7 | – | 1.67e7 | 1.46e7 | inactive |
| Gr59f (Gustatory receptor 59f) | 1 | 3.79e7 | 3.73e7 | – | 1.83e7 | 1.81e7 | inactive |
| goe (gone early) | 1 | 3.57e7 | 2.81e7 | – | 1.83e7 | 1.40e7 | inactive |
| Roc1a (Regulator of cullins 1a) | 1 | 3.31e7 | 2.42e7 | 1.7 | 1.93e7 | 1.55e7 | active |
| CG14223 | 1 | 4.12e7 | 3.76e7 | – | 2.33e7 | 1.73e7 | inactive |
| CG13427 | 1 | 4.27e7 | 3.88e7 | – | 1.94e7 | 1.92e7 | inactive |
| ETHR | 1 | 2.76e7 | 3.36e7 | – | 3.58e7 | 1.52e7 | inactive |
| p47 | 1 | 3.68e7 | – | – | 2.07e7 | – | inactive |
| Qtzl (Quetzalcoatl) | 1 | 4.97e7 | 5.09e7 | – | 2.28e7 | 1.99e7 | inactive |
| toc (toucan) | 1 | 4.43e7 | 4.47e7 | – | 2.38e7 | 2.10e7 | inactive |
| toc (toucan) | 2 | 4.19e7 | 4.25e7 | – | 2.35e7 | 1.85e7 | inactive |
| toc (toucan) | 3 | 4.20e7 | – | – | 2.59e7 | – | inactive |
| CG11122 | 1 | 1.85e7 | 2.09e7 | – | 9.55e6 | 1.00e7 | inactive |
| CG31698 | 1 | 3.73e7 | 4.77e7 | – | 1.82e7 | 2.72e7 | inactive |
| CG11841 | 1 | 2.87e7 | 2.15e7 | – | 1.31e7 | 1.14e7 | inactive |
| CG1545 | 1 | 4.23e7 | 3.85e7 | – | 2.47e7 | 2.04e7 | inactive |
| Sesn (Sestrin) | 1 | 4.17e7 | – | – | 1.92e7 | – | inactive |
| Sesn (Sestrin) | 2 | 3.86e7 | 3.94e7 | – | 1.87e7 | 1.76e7 | inactive |
| Sesn (Sestrin) | 3 | 4.49e7 | 4.57e7 | – | 2.26e7 | 2.17e7 | inactive |
| Ir48b (Ionotropic receptor 48b) | 1 | 3.97e7 | 4.71e7 | – | 1.94e7 | 1.97e7 | inactive |
| Cyp318a1 (Cytochrome P450 318a1) | 1 | 4.39e7 | 6.14e7 | – | 2.04e7 | 2.92e7 | inactive |
| Spc105R (Spc105-related) | 1 | 2.27e7 | 3.20e7 | – | 1.61e7 | 1.97e7 | active |
| IRSp53 (Insulin receptor substrate 53 kDa) | 1 | 2.60e7 | 4.42e7 | – | 1.38e7 | 1.94e7 | inactive |
| CG15480 | 1 | 5.10e7 | 3.18e7 | – | 2.29e7 | 1.58e7 | inactive |
| CG5131 | 1 | 5.38e7 | 3.48e7 | – | 2.38e7 | 1.65e7 | inactive |
| zye | 1 | 2.30e7 | 4.23e7 | – | 1.14e7 | 1.83e7 | inactive |
| CG43106 | 1 | 3.56e7 | 2.64e7 | – | 1.77e7 | 1.35e7 | inactive |
| east (enhanced adult sensory threshold) | 1 | 3.33e7 | 6.25e7 | 1.9 | 1.77e7 | 2.52e7 | inactive |
| Atg6 (Autophagy-related 6) | 1 | 3.65e7 | 3.64e7 | – | 1.85e7 | 1.61e7 | inactive |
| Polr2K (RNA polymerase II, I and III subunit K) | 1 | 3.13e7 | 1.91e7 | – | 1.44e7 | 1.01e7 | inactive |
| CG16787 | 1 | 3.58e7 | 4.08e7 | – | 1.82e7 | 1.91e7 | inactive |
| Orc5 (Origin recognition complex subunit 5) | 1 | 5.04e7 | 3.17e7 | – | 2.17e7 | 1.50e7 | inactive |
| MBD-like (Methyl-CpG binding domain protein-like) | 1 | 3.87e7 | 3.47e7 | – | 1.78e7 | 1.80e7 | inactive |
| CG31157 | 1 | 3.16e7 | 3.39e7 | – | 1.77e7 | 1.50e7 | inactive |
| CR16735 (pseudo) | 1 | 4.57e7 | 3.70e7 | – | 2.22e7 | 1.62e7 | inactive |
| zen2 (zerknullt-related) | 1 | 4.18e7 | 3.16e7 | – | 2.11e7 | 1.61e7 | inactive |
| CG7567 | 1 | 3.46e7 | 5.10e7 | – | 1.67e7 | 2.05e7 | inactive |
| Charon | 1 | 3.45e7 | – | – | 2.28e7 | – | inactive |
| CG10185 | 1 | 3.33e7 | 5.01e7 | – | 1.70e7 | 6.15e7 | inactive |
| CG2694 | 1 | 3.97e7 | 4.43e7 | – | 1.88e7 | 2.02e7 | inactive |
| Mlp84B (Muscle LIM protein at 84B) | 1 | 4.10e7 | 3.08e7 | – | 2.12e7 | 1.42e7 | inactive |
| CG14218 | 1 | 3.69e7 | 6.05e7 | – | 2.07e7 | 2.67e7 | inactive |
| ppk26 (pickpocket 26) | 1 | 3.08e7 | 6.65e7 | – | 1.39e7 | 2.49e7 | inactive |
| CG4021 | 1 | 5.34e7 | 5.63e7 | – | 2.66e7 | 2.41e7 | inactive |
| RpS7 (Ribosomal protein S7) | 1 | 1.08e7 | 8.64e6 | – | 7.92e6 | 6.46e6 | inactive |
| CG42553 | 1 | 3.80e7 | 3.46e7 | – | 2.01e7 | 1.79e7 | inactive |
| Tudor-SN (Tudor staphylococcal nuclease) | 1 | 5.00e7 | 4.09e7 | – | 2.36e7 | 2.23e7 | inactive |
| CG42857 | 1 | 3.27e7 | 4.55e7 | – | 1.65e7 | 2.13e7 | inactive |
| CG6357 | 1 | 3.36e7 | 2.87e7 | – | 1.52e7 | 1.45e7 | inactive |
| can (cannonball) | 1 | 3.90e7 | 3.62e7 | – | 2.04e7 | 1.80e7 | inactive |
| mus201 + Chrac-14 | 1 | 3.33e7 | 4.34e7 | – | 1.68e7 | 1.86e7 | inactive |
| mus201 + Chrac-14 | 2 | 3.10e7 | 4.20e7 | – | 1.63e7 | 1.93e7 | inactive |
| CG15888 | 1 | 2.50e7 | 3.85e7 | – | 1.27e7 | 4.95e7 | inactive |
| L (retired record) | 1 | 2.41e7 | 3.16e7 | – | 1.36e7 | 1.64e7 | inactive |
| L (retired record) | 2 | 2.43e7 | 4.00e7 | – | 1.38e7 | 1.76e7 | inactive |

As entered above.
Qtzl (Quetzalcoatl), Call → inactive
L (retired record) #2, resting calcium signal, replicate 2 (fluorescence units) → 1.76e7
Under “calcium entry signal, replicate 1 (fluorescence units)”, Ncc69 (sodium chloride cotransporter 69) #2 has 3.04e7
ppk26 (pickpocket 26), resting calcium signal, replicate 1 (fluorescence units): 1.39e7
Result of RunxA (Runt related A) #2 in “calcium entry signal, replicate 2 (fluorescence units)”: 4.96e7
Result for AttB (Attacin-B) in “Call”: inactive
